# Assay results published in paper doi:10.1101/2025.10.09.681391.
# The chains behind the UniProt entries cited, without tags or fusion partners. Where a name states a change or a piece, a line headed by the entry shows the natural chain unless it says otherwise. A line that says so, or that is headed by a name, gives the form on record, which may keep a tag or linker. Residues count along the entry.
# UniProt P46531: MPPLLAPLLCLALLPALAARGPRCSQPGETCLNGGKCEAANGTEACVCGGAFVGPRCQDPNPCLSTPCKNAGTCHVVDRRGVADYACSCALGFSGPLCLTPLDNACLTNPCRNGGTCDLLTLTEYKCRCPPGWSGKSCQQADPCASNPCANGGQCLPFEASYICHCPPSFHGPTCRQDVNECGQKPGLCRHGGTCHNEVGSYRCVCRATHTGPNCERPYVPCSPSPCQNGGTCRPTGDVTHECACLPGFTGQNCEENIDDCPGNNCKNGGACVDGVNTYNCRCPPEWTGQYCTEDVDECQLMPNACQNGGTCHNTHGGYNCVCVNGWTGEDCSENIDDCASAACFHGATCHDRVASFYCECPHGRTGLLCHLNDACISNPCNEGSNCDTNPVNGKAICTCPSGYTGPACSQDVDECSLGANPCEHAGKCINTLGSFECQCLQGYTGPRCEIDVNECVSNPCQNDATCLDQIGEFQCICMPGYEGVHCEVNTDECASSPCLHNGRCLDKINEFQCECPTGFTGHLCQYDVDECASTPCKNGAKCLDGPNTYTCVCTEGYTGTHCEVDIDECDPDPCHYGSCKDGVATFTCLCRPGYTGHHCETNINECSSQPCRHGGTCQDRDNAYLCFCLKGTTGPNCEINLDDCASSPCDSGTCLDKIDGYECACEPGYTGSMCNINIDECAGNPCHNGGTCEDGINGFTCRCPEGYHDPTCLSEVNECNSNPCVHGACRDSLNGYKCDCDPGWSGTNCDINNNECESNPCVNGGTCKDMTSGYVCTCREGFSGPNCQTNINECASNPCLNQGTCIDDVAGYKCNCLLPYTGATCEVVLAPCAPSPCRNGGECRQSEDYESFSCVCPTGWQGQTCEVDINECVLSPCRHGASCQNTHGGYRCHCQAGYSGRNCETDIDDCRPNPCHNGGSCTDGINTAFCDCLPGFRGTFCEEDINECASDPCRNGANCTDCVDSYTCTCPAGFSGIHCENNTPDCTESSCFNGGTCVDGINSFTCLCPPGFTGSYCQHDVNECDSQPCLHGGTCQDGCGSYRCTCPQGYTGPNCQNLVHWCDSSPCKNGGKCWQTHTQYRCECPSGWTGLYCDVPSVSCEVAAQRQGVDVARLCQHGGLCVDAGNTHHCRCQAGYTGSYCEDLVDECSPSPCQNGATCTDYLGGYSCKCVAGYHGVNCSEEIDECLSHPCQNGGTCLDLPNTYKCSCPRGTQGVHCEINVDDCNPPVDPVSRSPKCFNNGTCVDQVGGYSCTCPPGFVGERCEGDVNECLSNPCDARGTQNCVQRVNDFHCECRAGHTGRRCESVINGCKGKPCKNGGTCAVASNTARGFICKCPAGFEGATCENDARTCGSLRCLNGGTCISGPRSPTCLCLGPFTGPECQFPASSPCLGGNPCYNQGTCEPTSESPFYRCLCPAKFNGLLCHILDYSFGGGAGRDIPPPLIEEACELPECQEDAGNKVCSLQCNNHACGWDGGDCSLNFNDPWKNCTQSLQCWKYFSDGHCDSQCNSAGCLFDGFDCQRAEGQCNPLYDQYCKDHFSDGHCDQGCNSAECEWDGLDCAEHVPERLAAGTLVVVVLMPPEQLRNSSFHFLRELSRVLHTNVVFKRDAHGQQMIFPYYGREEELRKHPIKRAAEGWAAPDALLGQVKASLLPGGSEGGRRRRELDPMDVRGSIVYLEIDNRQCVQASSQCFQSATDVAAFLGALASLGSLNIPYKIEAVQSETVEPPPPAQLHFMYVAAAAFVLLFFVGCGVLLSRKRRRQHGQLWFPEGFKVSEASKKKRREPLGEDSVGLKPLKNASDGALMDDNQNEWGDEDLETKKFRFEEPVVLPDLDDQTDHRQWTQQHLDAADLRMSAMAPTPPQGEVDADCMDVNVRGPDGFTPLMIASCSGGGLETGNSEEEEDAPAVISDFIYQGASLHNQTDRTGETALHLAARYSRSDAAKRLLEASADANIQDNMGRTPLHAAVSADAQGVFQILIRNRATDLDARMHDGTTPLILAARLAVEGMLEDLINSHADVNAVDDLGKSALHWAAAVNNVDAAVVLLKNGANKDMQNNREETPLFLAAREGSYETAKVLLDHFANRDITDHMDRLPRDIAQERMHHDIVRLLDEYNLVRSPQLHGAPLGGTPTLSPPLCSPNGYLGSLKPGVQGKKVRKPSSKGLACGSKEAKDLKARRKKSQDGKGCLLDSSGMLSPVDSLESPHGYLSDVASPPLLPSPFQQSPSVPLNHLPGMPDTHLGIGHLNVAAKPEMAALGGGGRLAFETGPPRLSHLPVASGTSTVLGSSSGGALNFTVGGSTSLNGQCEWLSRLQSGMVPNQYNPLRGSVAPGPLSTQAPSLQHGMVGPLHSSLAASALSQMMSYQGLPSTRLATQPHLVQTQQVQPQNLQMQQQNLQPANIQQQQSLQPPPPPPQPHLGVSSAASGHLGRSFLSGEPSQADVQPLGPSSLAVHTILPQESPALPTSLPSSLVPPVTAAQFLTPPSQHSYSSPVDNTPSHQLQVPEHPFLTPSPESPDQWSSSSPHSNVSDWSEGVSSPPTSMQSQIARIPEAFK
# NICD1 (804 aa) tagged with 1xFLAG: residues 1753-2555 of P46531
# PAX6(b)-GFP (P26367-2, form named): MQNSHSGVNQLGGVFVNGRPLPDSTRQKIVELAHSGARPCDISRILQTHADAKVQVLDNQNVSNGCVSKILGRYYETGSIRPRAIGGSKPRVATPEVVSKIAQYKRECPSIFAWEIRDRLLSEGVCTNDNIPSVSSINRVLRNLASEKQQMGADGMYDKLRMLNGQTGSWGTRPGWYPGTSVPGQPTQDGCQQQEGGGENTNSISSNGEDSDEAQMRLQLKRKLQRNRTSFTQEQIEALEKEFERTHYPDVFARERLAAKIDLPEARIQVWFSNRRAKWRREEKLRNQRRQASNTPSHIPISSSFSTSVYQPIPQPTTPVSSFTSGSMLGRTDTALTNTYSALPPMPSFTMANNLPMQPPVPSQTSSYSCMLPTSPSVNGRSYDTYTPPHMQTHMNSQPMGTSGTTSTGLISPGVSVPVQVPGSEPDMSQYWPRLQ
# UniProt Q04721, residues 26-1677: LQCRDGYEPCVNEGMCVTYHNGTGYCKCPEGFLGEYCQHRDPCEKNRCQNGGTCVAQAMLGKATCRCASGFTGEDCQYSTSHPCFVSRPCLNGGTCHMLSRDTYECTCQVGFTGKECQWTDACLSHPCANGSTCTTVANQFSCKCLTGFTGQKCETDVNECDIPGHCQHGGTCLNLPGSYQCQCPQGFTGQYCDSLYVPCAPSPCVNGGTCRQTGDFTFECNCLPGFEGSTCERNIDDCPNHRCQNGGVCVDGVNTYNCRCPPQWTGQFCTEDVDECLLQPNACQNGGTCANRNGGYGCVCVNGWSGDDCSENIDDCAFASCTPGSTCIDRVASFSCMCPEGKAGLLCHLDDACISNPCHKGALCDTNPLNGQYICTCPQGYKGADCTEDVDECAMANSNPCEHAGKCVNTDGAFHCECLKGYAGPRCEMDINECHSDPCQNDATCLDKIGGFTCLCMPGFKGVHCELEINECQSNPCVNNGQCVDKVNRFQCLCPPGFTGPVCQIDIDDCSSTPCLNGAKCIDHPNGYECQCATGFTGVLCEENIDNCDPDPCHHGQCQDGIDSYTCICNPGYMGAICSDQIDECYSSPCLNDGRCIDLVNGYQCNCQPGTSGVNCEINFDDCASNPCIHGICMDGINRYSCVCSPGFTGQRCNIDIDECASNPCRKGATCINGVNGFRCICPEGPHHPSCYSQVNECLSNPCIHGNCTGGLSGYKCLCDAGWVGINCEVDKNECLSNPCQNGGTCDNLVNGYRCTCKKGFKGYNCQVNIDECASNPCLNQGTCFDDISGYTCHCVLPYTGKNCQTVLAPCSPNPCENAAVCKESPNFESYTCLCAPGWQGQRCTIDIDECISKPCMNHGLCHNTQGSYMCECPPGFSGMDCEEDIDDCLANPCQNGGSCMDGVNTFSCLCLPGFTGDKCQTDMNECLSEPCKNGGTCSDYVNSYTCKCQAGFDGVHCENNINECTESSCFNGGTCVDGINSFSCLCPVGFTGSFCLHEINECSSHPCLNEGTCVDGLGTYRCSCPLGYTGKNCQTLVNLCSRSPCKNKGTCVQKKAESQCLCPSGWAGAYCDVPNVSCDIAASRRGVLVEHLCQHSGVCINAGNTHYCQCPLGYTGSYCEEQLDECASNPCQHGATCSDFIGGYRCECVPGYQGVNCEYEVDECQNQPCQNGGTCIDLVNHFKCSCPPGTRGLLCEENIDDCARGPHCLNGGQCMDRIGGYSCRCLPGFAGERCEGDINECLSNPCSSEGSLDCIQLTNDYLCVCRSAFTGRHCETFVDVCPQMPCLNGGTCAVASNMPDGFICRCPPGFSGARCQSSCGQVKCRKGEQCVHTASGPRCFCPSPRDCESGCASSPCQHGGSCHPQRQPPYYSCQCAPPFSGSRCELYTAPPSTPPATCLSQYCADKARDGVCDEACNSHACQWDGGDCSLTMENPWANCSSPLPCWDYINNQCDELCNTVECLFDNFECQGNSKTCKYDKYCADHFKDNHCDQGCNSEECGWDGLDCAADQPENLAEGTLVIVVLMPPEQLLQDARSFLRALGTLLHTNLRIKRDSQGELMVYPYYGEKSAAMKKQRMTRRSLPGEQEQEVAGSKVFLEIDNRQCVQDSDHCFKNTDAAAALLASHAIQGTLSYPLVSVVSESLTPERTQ
# No constants are given. Whether binding was seen depends on the method and setting. Binding seen in cells or lysates may run through a third protein. Some entries that bind do so weakly or less than the wild type.
# Tests used:
# [1] = molecular target: NICD1 (804 aa) tagged with 1xFLAG (human) (UniProt P46531); test: co-IP
# [2] = molecular target: T1, full-length human CNTN6-3xHA (human) (UniProt Q9UQ52); test: co-IP
# T1 sequence: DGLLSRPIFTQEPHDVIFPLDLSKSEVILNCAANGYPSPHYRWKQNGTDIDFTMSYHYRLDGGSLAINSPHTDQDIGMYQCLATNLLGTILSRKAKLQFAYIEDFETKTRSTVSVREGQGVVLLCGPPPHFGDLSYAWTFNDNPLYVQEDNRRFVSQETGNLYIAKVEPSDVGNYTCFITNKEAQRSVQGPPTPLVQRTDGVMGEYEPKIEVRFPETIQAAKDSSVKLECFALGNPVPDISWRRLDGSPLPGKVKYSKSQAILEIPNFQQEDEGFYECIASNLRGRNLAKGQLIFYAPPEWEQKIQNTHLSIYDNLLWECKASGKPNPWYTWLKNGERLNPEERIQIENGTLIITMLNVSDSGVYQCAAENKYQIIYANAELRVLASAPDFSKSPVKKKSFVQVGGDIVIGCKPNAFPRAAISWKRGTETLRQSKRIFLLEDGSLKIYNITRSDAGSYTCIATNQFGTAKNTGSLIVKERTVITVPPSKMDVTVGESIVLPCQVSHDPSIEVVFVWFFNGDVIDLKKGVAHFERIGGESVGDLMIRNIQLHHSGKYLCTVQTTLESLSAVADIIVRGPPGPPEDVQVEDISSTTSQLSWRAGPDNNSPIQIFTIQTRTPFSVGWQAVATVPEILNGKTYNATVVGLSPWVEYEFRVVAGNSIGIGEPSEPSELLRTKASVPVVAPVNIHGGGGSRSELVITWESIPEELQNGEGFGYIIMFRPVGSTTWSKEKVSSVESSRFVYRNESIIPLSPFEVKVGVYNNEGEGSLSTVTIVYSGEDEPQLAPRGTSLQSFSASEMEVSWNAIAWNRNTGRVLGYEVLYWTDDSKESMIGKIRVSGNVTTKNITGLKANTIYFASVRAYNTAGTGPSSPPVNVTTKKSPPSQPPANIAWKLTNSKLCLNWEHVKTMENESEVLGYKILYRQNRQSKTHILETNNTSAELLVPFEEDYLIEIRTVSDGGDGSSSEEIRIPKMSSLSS
binding [1],binding [2],Substance
binds,–,PAX6(b)-GFP (from UniProt P26367-2 1-436)
binds,–,PAX6(a)-GFP (from UniProt P26367-1 1-422)
–,binds,FLAG-tagged NOTCH2 extracellular domain (from UniProt Q04721 26-1677) (domain or fragment)
–,binds,FLAG-tagged NOTCH1 extracellular domain (from UniProt P46531 19-1796) (domain or fragment)
